Reference: PubChem BioAssay AID328 (DTP/NCI, 2004)
The list is a part of this screen's results and no random one: it is rich in T/C values a quarter to a half above the control, in often repeated tests (any T/C) and in doses without a T/C. Further doses and runs are listed elsewhere. T/C gives the treated animals as a percentage of the vehicle group. Some entries give survivors of the animals treated and no T/C: the source holds a T/C of zero for them, seemingly a mark for toxic or unscored doses. Some doses without a T/C left all or most animals alive at the check, yet need not have been tolerated: the source hardly ever lists a survival T/C far under the control, and the zero likely stands for such cases as well. Counts of survivors are from the toxicity check (mostly the fifth day) where no day follows; animals may have died later. Schedule codes are those of the source, taken here to give the interval after Q, in days (D) or hours (H), and the number of doses after X. For survival time, the PubChem record calls one and a half times the control and up active, and a quarter to a half above the control has no call in these data; cut-offs in other NCI protocols can differ. Some entries hold several experiments; the values are given in rising order. Some T/C values carry the count of animals alive at the toxicity check (mostly the fifth day); without a count, all were alive then.

Test system: BDF1 mice, P388 leukemia ip, median survival T/C
Test: NCI In Vivo Anticancer Drug Screen. Data for tumor model P388 Leukemia (intraperitoneal) in B6D2F1 (BDF1) mice
Details: T/C endpoint: median survival time, higher T/C = longer survival
Summary of the method: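 T/C = treated-group survival ÷ vehicle-control survival; tumour transplanted into mice before dosing.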

[1] = dose: 200.0 mg/kg/injection, schedule: Q01DX009 (ip), vehicle: saline with Tween-80
[2] = dose: 50.0 mg/kg/injection, schedule: Q01DX009 (ip), vehicle: saline
[3] = dose: 25.0 mg/kg/injection, schedule: Q01DX009 (ip), vehicle: saline with Tween-80
[4] = dose: 50.0 mg/kg/injection, schedule: Q01DX009 (ip), vehicle: saline with Tween-80
[5] = dose: 100.0 mg/kg/injection, schedule: Q04DX003 (ip), vehicle: saline with Tween-80
[6] = dose: 100.0 mg/kg/injection, schedule: Q04DX003 (ip), vehicle: saline sonified
[7] = dose: 200.0 mg/kg/injection, schedule: Q01DX009 (ip), vehicle: saline
[8] = dose: 50.0 mg/kg/injection, schedule: Q01DX009 (ip), vehicle: DMSO
[9] = dose: 200.0 mg/kg/injection, schedule: Q04DX003 (ip), vehicle: saline with Tween-80
[10] = dose: 400.0 mg/kg/injection, schedule: Q04DX003 (ip), vehicle: saline

For `CCCCSC#N`, the survivor count (dose: 25.0 mg/kg/injection, schedule: Q01DX001 (ip), vehicle: saline) was 2 of 6.
`C=C[C@@](C)(O)CC/C=C(/C)CCC=C(C)C` was tested, and the survivor count [1] was 2 of 6 and the survivor count (dose: 400.0 mg/kg/injection, schedule: Q01DX009 (ip), vehicle: saline with Tween-80) was 1 of 6.
In the case of `Cc1ccc(NC(=O)N(CCCl)N=O)cc1NC(=O)N(CCCl)N=O`, the T/C (dose: 12.5 mg/kg/injection, schedule: Q01DX009 (ip), vehicle: other) is reported as 139 % of control, the T/C (dose: 12.5 mg/kg/injection, schedule: Q04DX003 (ip), vehicle: other) is reported as 144 % of control and the survivor count (dose: 25.0 mg/kg/injection, schedule: Q01DX009 (ip), vehicle: other) is reported as 5 of 6. For the same molecule, the survivor count (dose: 100.0 mg/kg/injection, schedule: Q04DX003 (ip), vehicle: other) was 6 of 6, the survivor count (dose: 200.0 mg/kg/injection, schedule: Q04DX003 (ip), vehicle: other) was 1 of 6 and the survivor count (dose: 400.0 mg/kg/injection, schedule: Q04DX003 (ip), vehicle: other) was 0 of 6.
In the case of `O=[N+]([O-])c1ccc(Oc2ccc(-c3ccccc3)cc2)c(Cl)c1`, the survivor count (dose: 37.5 mg/kg/injection, schedule: Q01DX009 (ip), vehicle: saline with Tween-80) is reported as 7 of 7.
For `Nc1cc(I)c2cccnc2c1O`, the T/C (dose: 25.0 mg/kg/injection, schedule: Q01DX009 (ip), vehicle: saline) was 133 % of control and the T/C [2] was 145 % of control.
In the case of `O=C(C=C(C(F)(F)F)C(F)(F)F)c1cc(Cl)ccc1Cl`, the T/C (dose: 16.5 mg/kg/injection, schedule: Q04DX003 (ip), vehicle: saline with Tween-80) is reported as 126 % of control, the survivor count [3] is reported as 5 of 6 and the T/C (dose: 25.0 mg/kg/injection, schedule: Q04DX003 (ip), vehicle: saline with Tween-80) is reported as 126 % of control. The survivor count [4] was 5 of 6 and the survivor count (dose: 50.0 mg/kg/injection, schedule: Q04DX003 (ip), vehicle: saline with Tween-80) was 6 of 6.
With `Nc1ncnc2nc(-c3ccc(Br)cc3)[nH]c12` the survivor count (dose: 400.0 mg/kg/injection, schedule: Q01DX001 (ip), vehicle: saline with Tween-80) was 3 of 6.
`CC(=O)OCC(=O)[C@@]1(O)CC[C@H]2[C@@H]3CCC4=CC(=O)CC[C@]4(C)[C@@]3(Cl)[C@@H](O)C[C@@]21C` was tested, and the T/C [5] was 131 % of control.
For `C[N+](C)(CC(=O)Nc1ccc(Cl)c(Cl)c1)CC(=O)c1ccc(Cl)c(Cl)c1`, the survivor count [6] was 6 of 6 and the survivor count (dose: 200.0 mg/kg/injection, schedule: Q04DX003 (ip), vehicle: saline sonified) was 6 of 6.
With `Cc1cc(C)c(S(=O)(=O)OCCCl)c(C)c1` the survivor count (dose: 200.0 mg/kg/injection, schedule: Q01DX005 (ip), vehicle: Klucel (hydroxypropylcellulose) (HPC)) was 0 of 6.
For `Ic1ncnc2c1ncn2C1CCCO1` (stereo not given), the T/C (dose: 100.0 mg/kg/injection, schedule: Q01DX009 (ip), vehicle: saline sonified) was 138 % of control [5 of 6 alive].
With `C[N+](C)(CC(=O)Nc1ccc(Cl)c(C(F)(F)F)c1)CC(=O)c1ccc(Cl)c(Cl)c1` the survivor count [6] was 5 of 5.
In the case of `COc1cc2ccc3ccncc3c2cc1OC`, the survivor count (dose: 100.0 mg/kg/injection, schedule: Q01DX009 (ip), vehicle: saline) is reported as 1 of 6.
With `BrC1c2cccc3cccc(c23)C1Br` (stereo not given) the T/C [3] was 144 % of control, the T/C [4] was 144 and 147 % of control and the T/C (dose: 100.0 mg/kg/injection, schedule: Q01DX009 (ip), vehicle: saline with Tween-80) was 141 % of control. For the same molecule, the survivor count [1] was 6 of 6.
`CCN1CC1` (tested in a mixture with another compound) was tested, and the survivor count (dose: 0.14 mg/kg/injection, schedule: Q01DX009 (ip), vehicle: saline) was 6 of 6, the survivor count (dose: 0.29 mg/kg/injection, schedule: Q01DX009 (ip), vehicle: saline) was 6 of 6 and the survivor count (dose: 4.68 mg/kg/injection, schedule: Q01DX009 (ip), vehicle: saline) was 0 of 6.
In the case of `O=C(c1ccccc1)c1cc[n+]([O-])cc1`, the survivor count (dose: 300.0 mg/kg/injection, schedule: Q01DX001 (ip), vehicle: saline sonified) is reported as 6 of 6.
With `COc1cc2ccncc2cc1OCc1ccccc1` the survivor count [7] was 0 of 6 and the survivor count (dose: 400.0 mg/kg/injection, schedule: Q01DX009 (ip), vehicle: saline) was 0 of 6.
For `Cc1c(C)c(CO)c(C)c(C)c1CO`, the T/C (dose: 12.5 mg/kg/injection, schedule: Q01DX009 (ip), vehicle: Klucel (hydroxypropylcellulose) (HPC)) was 130 % of control, the T/C (dose: 25.0 mg/kg/injection, schedule: Q01DX009 (ip), vehicle: Klucel (hydroxypropylcellulose) (HPC)) was 125 % of control and the survivor count (dose: 50.0 mg/kg/injection, schedule: Q01DX009 (ip), vehicle: Klucel (hydroxypropylcellulose) (HPC)) was 4 of 6.
`Cc1c(O)c2c(c(O)c1Cc1ccc(CN)cc1)C(=O)c1ccccc1C2=O` was tested, and the survivor count (dose: 50.0 mg/kg/injection, schedule: Q01DX009 (ip), vehicle: water) was 6 of 6, the survivor count (dose: 100.0 mg/kg/injection, schedule: Q01DX009 (ip), vehicle: water) was 1 of 6 and the survivor count (dose: 200.0 mg/kg/injection, schedule: Q01DX009 (ip), vehicle: water) was 1 of 6.
With `CC(=O)Oc1c(Cl)c(Cl)c(C#N)c(Cl)c1C#N` the survivor count [1] was 0 of 6.
In the case of `COc1cc(OC)c(NC(=S)Nc2cc(C)ccc2OC)cc1Cl`, the T/C [8] is reported as 129 % of control.
`C[N+](C)(C)CCCSC1=NCCN1` was tested, and the survivor count [2] was 0 of 6.
`CC(C)CNC(=S)N/N=C\C=N/NC(=S)NCC(C)C` was tested, and the survivor count (dose: 300.0 mg/kg/injection, schedule: Q01DX009 (ip), vehicle: saline with Tween-80) was 7 of 7.
`Cc1ncc([N+](=O)[O-])n1CCSC#N` was tested, and the survivor count [5] was 0 of 6, the survivor count [9] was 0 of 6 and the survivor count (dose: 400.0 mg/kg/injection, schedule: Q04DX003 (ip), vehicle: saline with Tween-80) was 0 of 6.
For `O=CNc1c(Cl)c(Cl)c2c(c1Cl)Cc1cc(Cl)ccc1-2`, the survivor count (dose: 1.5 mg/kg/injection, schedule: Q01DX009 (ip), vehicle: DMSO) was 6 of 6, the survivor count (dose: 6.0 mg/kg/injection, schedule: Q01DX009 (ip), vehicle: DMSO) was 6 of 6 and the survivor count (dose: 25.0 mg/kg/injection, schedule: Q01DX009 (ip), vehicle: DMSO) was 5 of 6. For the same molecule, the survivor count [8] was 5 of 6, the survivor count (dose: 100.0 mg/kg/injection, schedule: Q01DX009 (ip), vehicle: DMSO) was 1 of 6 and the survivor count (dose: 200.0 mg/kg/injection, schedule: Q01DX009 (ip), vehicle: DMSO) was 1 of 6. For the same molecule, the survivor count (dose: 400.0 mg/kg/injection, schedule: Q01DX009 (ip), vehicle: DMSO) was 0 of 6.
In the case of `COC(=O)C1(C)CCC(c2ccc(OC)cc2)CC1=O` (stereo not given), the survivor count [10] is reported as 6 of 6.
In the case of `CCNc1nncs1`, the T/C [2] is reported as 136 % of control [5 of 6 alive], the T/C (dose: 66.0 mg/kg/injection, schedule: Q01DX009 (ip), vehicle: saline) is reported as 141 % of control and the T/C (dose: 132.0 mg/kg/injection, schedule: Q04DX003 (ip), vehicle: saline with Tween-80) is reported as 134 and 142 % of control. For the same molecule, the survivor count [7] was 5 of 6, the T/C [9] was 142 % of control and the T/C (dose: 200.0 mg/kg/injection, schedule: Q04DX003 (ip), vehicle: saline) was 136 % of control. For the same molecule, the survivor count (dose: 300.0 mg/kg/injection, schedule: Q04DX003 (ip), vehicle: saline with Tween-80) was 4 of 6 and the survivor count [10] was 5 of 6.
In the case of `Oc1ccccc1/C=N\c1nccs1`, the survivor count (dose: 400.0 mg/kg/injection, schedule: Q01DX009 (ip), vehicle: Klucel (hydroxypropylcellulose) (HPC)) is reported as 2 of 6.
